Source: PubChem BioAssay AID1259425 (University of Nebraska Medical Center, 2018)
Aim: 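Compare each knockdown with KSR1 silencing using changes in marker transcripts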 (primary screen). System: HCT116 human colon cancer cells. Knock-down reagent: siRNA pool against human genes, 50 nM siRNA. Measured: 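After 50 nM siRNA pool, branched-DNA assay measures six marker transcripts per well, minus blank, normalised to the geometric mean of two housekeeping transcripts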. Direction: BNIP3L mRNA: higher = more BNIP3L transcript after knockdown.
The deposit covers about 14,000 reagents; this is a part drawn at random. Further read-outs or replicates are left out here. Not given: the time to read-out.

ARF1 (ARF GTPase 1) — BNIP3L mRNA, set 1 = 0.197
PTCRA (pre T cell antigen receptor alpha) — BNIP3L mRNA, set 1 = 0.0594
SKP1 (S-phase kinase associated protein 1) — BNIP3L mRNA, set 1 = 0.0456
BCL11B (BCL11 transcription factor B) — BNIP3L mRNA, set 1 = 0.0676
DDRGK1 (DDRGK domain containing 1) — BNIP3L mRNA, set 1 = 0.114
YKT6 (YKT6 vesicular SNARE protein) — BNIP3L mRNA, set 1 = 0.0928
EEF2K (eukaryotic elongation factor 2 kinase) — BNIP3L mRNA, set 1 = 0.104
SOWAHC (sosondowah ankyrin repeat domain family member C) — BNIP3L mRNA, set 1 = 0.0647
PLAAT2 (phospholipase A and acyltransferase 2) — BNIP3L mRNA, set 1 = 0.215
RARA (retinoic acid receptor alpha) — BNIP3L mRNA, set 1 = 0.0933
MON1A (MON1 vesicular trafficking associated A) — BNIP3L mRNA, set 1 = 0.274
NAGK (N-acetylglucosamine kinase) — BNIP3L mRNA, set 1 = 0.158

2 consecutive entries from above:
BCL11B (BCL11 transcription factor B) — BNIP3L mRNA, set 1 = 0.0676
DDRGK1 (DDRGK domain containing 1) — BNIP3L mRNA, set 1 = 0.114
